From the supplement of paper PMC8728848
The list shows a part of the results.

Tests used:
Test in all cases: glycan array binding signal (z-score within array); higher = stronger binding
Conditions in all cases: glycan notation: IUPAC condensed, linker removed
GlcNAc(b1-3)Gal(b1-4)Glc = target: GlcNAc(b1-3)Gal(b1-4)Glc
In short: (§1)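 Glycan array data came from 3228 arrays in the Consortium for Functional Glycomics database, and only arrays with an available protein sequence were kept. Glycan names were put into IUPAC-condensed notation, and columns mapping to the same glycan were averaged. The binding signal is a within-array Z-score, averaged across arrays of one protein sequence run at different concentrations or buffers and across linkers. A negative Z-score can be read as non-binding.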

[1] = target: GlcNAc(b1-3)Gal(b1-4)GlcNAc
In short: as §1

[2] = target: GlcNAc(b1-3)Gal(b1-4)GlcNAc(b1-2)Man(a1-3)[GlcNAc(b1-3)Gal(b1-4)GlcNAc(b1-2)Man(a1-6)]Man(b1-4)GlcNAc(b1-4)GlcNAc
In short: as §1

[3] = target: GlcNAc(b1-3)Gal(b1-4)GlcNAc(b1-2)Man(a1-3)[GlcNAc(b1-3)Gal(b1-4)GlcNAc(b1-2)Man(a1-6)]Man(b1-4)GlcNAc(b1-4)[Fuc(a1-6)]GlcNAc
In short: as §1

[4] = target: GlcNAc(b1-3)Gal(b1-4)GlcNAc(b1-2)[GlcNAc(b1-3)Gal(b1-4)GlcNAc(b1-6)]Man(a1-6)[GlcNAc(b1-3)Gal(b1-4)GlcNAc(b1-2)Man(a1-3)]Man(b1-4)GlcNAc(b1-4)GlcNAc
In short: as §1

[5] = target: GlcNAc(b1-3)Gal(b1-4)GlcNAc(b1-3)Gal(b1-4)GlcNAc
In short: as §1

[6] = target: GlcNAc(b1-3)Gal(b1-4)GlcNAc(b1-3)Gal(b1-4)GlcNAc(b1-2)Man(a1-3)[GlcNAc(b1-3)Gal(b1-4)GlcNAc(b1-3)Gal(b1-4)GlcNAc(b1-2)Man(a1-6)]Man(b1-4)GlcNAc(b1-4)GlcNAc
In short: as §1

[7] = target: GlcNAc(b1-3)Gal(b1-4)GlcNAc(b1-3)Gal(b1-4)GlcNAc(b1-2)Man(a1-3)[GlcNAc(b1-3)Gal(b1-4)GlcNAc(b1-3)Gal(b1-4)GlcNAc(b1-2)Man(a1-6)]Man(b1-4)GlcNAc(b1-4)[Fuc(a1-6)]GlcNAc
In short: as §1

[8] = target: GlcNAc(b1-3)Gal(b1-4)GlcNAc(b1-3)Gal(b1-4)GlcNAc(b1-2)[GlcNAc(b1-3)Gal(b1-4)GlcNAc(b1-3)Gal(b1-4)GlcNAc(b1-6)]Man(a1-6)[GlcNAc(b1-3)Gal(b1-4)GlcNAc(b1-3)Gal(b1-4)GlcNAc(b1-2)Man(a1-3)]Man(b1-4)GlcNAc(b1-4)[Fuc(a1-6)]GlcNAc
In short: as §1

[9] = target: GlcNAc(b1-3)Gal(b1-4)GlcNAc(b1-3)Gal(b1-4)GlcNAc(b1-3)Gal(b1-4)GlcNAc(b1-2)Man(a1-3)[GlcNAc(b1-3)Gal(b1-4)GlcNAc(b1-3)Gal(b1-4)GlcNAc(b1-3)Gal(b1-4)GlcNAc(b1-2)Man(a1-6)]Man(b1-4)GlcNAc(b1-4)GlcNAc
In short: as §1

[10] = target: GlcNAc(b1-3)Gal(b1-4)GlcNAc(b1-3)Gal(b1-4)GlcNAc(b1-3)Gal(b1-4)GlcNAc(b1-2)Man(a1-3)[GlcNAc(b1-3)Gal(b1-4)GlcNAc(b1-3)Gal(b1-4)GlcNAc(b1-3)Gal(b1-4)GlcNAc(b1-2)Man(a1-6)]Man(b1-4)GlcNAc(b1-4)[Fuc(a1-6)]GlcNAc
In short: as §1

[11] = target: GlcNAc(b1-3)Gal(b1-4)GlcNAc(b1-3)Gal(b1-4)GlcNAc(b1-3)Gal(b1-4)GlcNAc(b1-2)[GlcNAc(b1-3)Gal(b1-4)GlcNAc(b1-3)Gal(b1-4)GlcNAc(b1-3)Gal(b1-4)GlcNAc(b1-6)]Man(a1-6)[GlcNAc(b1-3)Gal(b1-4)GlcNAc(b1-3)Gal(b1-4)GlcNAc(b1-3)Gal(b1-4)GlcNAc(b1-2)Man(a1-3)]Man(b1-4)GlcNAc(b1-4)[Fuc(a1-6)]GlcNAc
In short: as §1

[12] = target: GlcNAc(b1-3)Gal(b1-4)GlcNAc(b1-3)Gal(b1-4)GlcNAc(b1-3)Gal(b1-4)GlcNAc(b1-3)Gal(b1-4)GlcNAc(b1-2)Man(a1-3)[GlcNAc(b1-3)Gal(b1-4)GlcNAc(b1-3)Gal(b1-4)GlcNAc(b1-3)Gal(b1-4)GlcNAc(b1-3)Gal(b1-4)GlcNAc(b1-2)Man(a1-6)]Man(b1-4)GlcNAc(b1-4)GlcNAc
In short: as §1

[13] = target: GlcNAc(b1-3)Gal(b1-4)GlcNAc(b1-3)Gal(b1-4)GlcNAc(b1-3)Gal(b1-4)GlcNAc(b1-3)Gal(b1-4)GlcNAc(b1-2)Man(a1-3)[GlcNAc(b1-3)Gal(b1-4)GlcNAc(b1-3)Gal(b1-4)GlcNAc(b1-3)Gal(b1-4)GlcNAc(b1-3)Gal(b1-4)GlcNAc(b1-2)Man(a1-6)]Man(b1-4)GlcNAc(b1-4)[Fuc(a1-6)]GlcNAc
In short: as §1

[14] = target: GlcNAc(b1-3)Gal(b1-4)GlcNAc(b1-3)Gal(b1-4)GlcNAc(b1-3)Gal(b1-4)GlcNAc(b1-3)Gal(b1-4)GlcNAc(b1-2)[GlcNAc(b1-3)Gal(b1-4)GlcNAc(b1-3)Gal(b1-4)GlcNAc(b1-3)Gal(b1-4)GlcNAc(b1-3)Gal(b1-4)GlcNAc(b1-6)]Man(a1-6)[GlcNAc(b1-3)Gal(b1-4)GlcNAc(b1-3)Gal(b1-4)GlcNAc(b1-3)Gal(b1-4)GlcNAc(b1-3)Gal(b1-4)GlcNAc(b1-2)Man(a1-3)]Man(b1-4)GlcNAc(b1-4)[Fuc(a1-6)]GlcNAc
In short: as §1

[15] = target: GlcNAc(b1-3)Gal(b1-4)GlcNAc(b1-3)Gal(b1-4)GlcNAc(b1-3)GalNAc
In short: as §1

[16] = target: GlcNAc(b1-3)Gal(b1-4)GlcNAc(b1-3)GalNAc
In short: as §1

[17] = target: GlcNAc(b1-3)Gal(b1-4)GlcNAc(b1-3)[GlcNAc(b1-3)Gal(b1-4)GlcNAc(b1-3)]GalNAc
In short: as §1

[18] = target: GlcNAc(b1-3)Gal(b1-4)GlcNAc(b1-6)[Gal(b1-3)]GalNAc
In short: as §1

[19] = target: GlcNAc(b1-3)Gal(b1-4)GlcNAc(b1-6)[GlcNAc(b1-3)Gal(b1-3)]GalNAc
In short: as §1

[20] = target: GlcNAc(b1-3)Gal(b1-4)GlcNAc(b1-6)[GlcNAc(b1-3)]Gal(b1-4)GlcNAc
In short: as §1

GlcNAc(b1-3)GalNAc = target: GlcNAc(b1-3)GalNAc
In short: as §1

GlcNAc(b1-3)Man = target: GlcNAc(b1-3)Man
In short: as §1

[21] = target: GlcNAc(b1-3)[GlcNAc(b1-4)][GlcNAc(b1-6)]GlcNAc
In short: as §1

[22] = target: GlcNAc(b1-3)[GlcNAc(b1-6)]Gal(b1-4)GlcNAc
In short: as §1

[23] = target: GlcNAc(b1-3)[GlcNAc(b1-6)]GalNAc
In short: as §1

[24] = target: GlcNAc(b1-4)Gal(b1-4)GlcNAc
In short: as §1

GlcNAc(b1-4)GlcNAc = target: GlcNAc(b1-4)GlcNAc
In short: as §1

[25] = target: GlcNAc(b1-4)GlcNAc(b1-4)GlcNAc
In short: as §1

[26] = target: GlcNAc(b1-4)GlcNAc(b1-4)GlcNAc(b1-4)GlcNAc(b1-4)GlcNAc
In short: as §1

[27] = target: GlcNAc(b1-4)GlcNAc(b1-4)GlcNAc(b1-4)GlcNAc(b1-4)GlcNAc(b1-4)GlcNAc
In short: as §1

[28] = target: GlcNAc(b1-4)[GlcNAc(b1-6)]GalNAc
In short: as §1

[29] = target: GlcNAc(b1-6)Gal(b1-4)GlcNAc
In short: as §1

GlcNAc(b1-6)GalNAc = target: GlcNAc(b1-6)GalNAc
In short: as §1

[30] = target: GlcNAc6S(b1-3)Gal(b1-4)GlcNAc
In short: as §1

Kdn(a2-3)Gal(b1-3)GalNAc = target: Kdn(a2-3)Gal(b1-3)GalNAc
In short: as §1

Kdn(a2-3)Gal(b1-3)GlcNAc = target: Kdn(a2-3)Gal(b1-3)GlcNAc
In short: as §1

Kdn(a2-3)Gal(b1-4)Glc = target: Kdn(a2-3)Gal(b1-4)Glc
In short: as §1

Kdn(a2-3)Gal(b1-4)GlcNAc = target: Kdn(a2-3)Gal(b1-4)GlcNAc
In short: as §1

[31] = target: Kdn(a2-3)Gal(b1-4)[Fuc(a1-3)]GlcNAc
In short: as §1

Kdn(a2-6)Gal(b1-4)GlcNAc = target: Kdn(a2-6)Gal(b1-4)GlcNAc
In short: as §1

[32] = target: Man(a1-2)Man(a1-2)Man(a1-3)Man
In short: as §1

[33] = target: Man(a1-2)Man(a1-2)Man(a1-6)[Man(a1-3)]Man
In short: as §1

Man(a1-2)Man(a1-3)Man = target: Man(a1-2)Man(a1-3)Man
In short: as §1

[34] = target: Man(a1-2)Man(a1-3)[Man(a1-2)Man(a1-6)]Man
In short: as §1

B1: Thrombomodulin Lectin (Mus musculus) (protein)
chain: LSALAKLQPTGSQCVEHECFALFQGPATFLDASQACQRLQGHLMTVRSSVAADVISLLLSQSSMDLGPWIGLQLPQGCDDPVHLGPLRGFQWVTGDNHTSYSRWARPNDQTAPLCGPLCVTVSTATEAAPGEPAWEEKPCETETQGFLCEFYFTASCRVDPIPVREDTKEEEGAGEPPVSPTPGSPTGPPSARPVLDEPRVPITQNPCPPLKECPPCAAPDLEGGPSVFIFPPKIKDVLMISLSPMVTCVVVDVSEDDPDVQISWFVNNVEVHTAQTQTHREDYNSTLRVVSALPIQHQDWMSGKAFACAVNNRALPSPIEKTISKPRGPVRAPQVYVLPPPAEEMTKKEFSLTCMITGFLPAEIAVDWTSNGRTEQNYKNTATVLDSDGSYFMYSKLRVQKSTWERGSLFACSVVHEGLHNHLTTKTISRSLGK
For B1, the “glycan array binding signal (z-score)” value (GlcNAc(b1-3)Gal(b1-4)Glc) was -0.433, the “glycan array binding signal (z-score)” value [1] was -0.204 and the “glycan array binding signal (z-score)” value [2] was -0.235. The “glycan array binding signal (z-score)” value [3] was -0.564, the “glycan array binding signal (z-score)” value [4] was -1.48 and the “glycan array binding signal (z-score)” value [5] was -0.268. The “glycan array binding signal (z-score)” value [6] was 1.08, the “glycan array binding signal (z-score)” value [7] was -1.57 and the “glycan array binding signal (z-score)” value [8] was 2.07. For the same binder, the “glycan array binding signal (z-score)” value [9] was 0.214, the “glycan array binding signal (z-score)” value [10] was 0.764 and the “glycan array binding signal (z-score)” value [11] was 0.558. The “glycan array binding signal (z-score)” value [12] was 0.151, the “glycan array binding signal (z-score)” value [13] was 1.05 and the “glycan array binding signal (z-score)” value [14] was 0.746. For the same binder, the “glycan array binding signal (z-score)” value [15] was -1.15, the “glycan array binding signal (z-score)” value [16] was -0.277 and the “glycan array binding signal (z-score)” value [17] was -0.321. For the same binder, the “glycan array binding signal (z-score)” value [18] was -0.352, the “glycan array binding signal (z-score)” value [19] was -0.747 and the “glycan array binding signal (z-score)” value [20] was -1.69. The “glycan array binding signal (z-score)” value (GlcNAc(b1-3)GalNAc) was -0.097, the “glycan array binding signal (z-score)” value (GlcNAc(b1-3)Man) was 0.801 and the “glycan array binding signal (z-score)” value [21] was -0.082. For the same binder, the “glycan array binding signal (z-score)” value [22] was -0.514, the “glycan array binding signal (z-score)” value [23] was 0.102 and the “glycan array binding signal (z-score)” value [24] was 0.143. For the same binder, the “glycan array binding signal (z-score)” value (GlcNAc(b1-4)GlcNAc) was 0.431, the “glycan array binding signal (z-score)” value [25] was 0.52 and the “glycan array binding signal (z-score)” value [26] was -1.3. The “glycan array binding signal (z-score)” value [27] was 1.17, the “glycan array binding signal (z-score)” value [28] was 1.02 and the “glycan array binding signal (z-score)” value [29] was -1.01. For the same binder, the “glycan array binding signal (z-score)” value (GlcNAc(b1-6)GalNAc) was 0.148, the “glycan array binding signal (z-score)” value [30] was 0.319 and the “glycan array binding signal (z-score)” value (Kdn(a2-3)Gal(b1-3)GalNAc) was 1.18. For the same binder, the “glycan array binding signal (z-score)” value (Kdn(a2-3)Gal(b1-3)GlcNAc) was -0.266, the “glycan array binding signal (z-score)” value (Kdn(a2-3)Gal(b1-4)Glc) was -0.284 and the “glycan array binding signal (z-score)” value (Kdn(a2-3)Gal(b1-4)GlcNAc) was 1.38. For the same binder, the “glycan array binding signal (z-score)” value [31] was 1.5, the “glycan array binding signal (z-score)” value (Kdn(a2-6)Gal(b1-4)GlcNAc) was -1.59 and the “glycan array binding signal (z-score)” value [32] was -0.544. The “glycan array binding signal (z-score)” value [33] was 0.378, the “glycan array binding signal (z-score)” value (Man(a1-2)Man(a1-3)Man) was -0.807 and the “glycan array binding signal (z-score)” value [34] was -0.79.
